Laboratory results taken from paper doi:10.1101/2025.07.01.662281.
Results are given in words; binding and its absence hold for the method and conditions named. In cells and extracts the contact can be indirect. Some entries that bind do so weakly or less than the wild type. Sequences can lack the tags named with a protein. Each block holds one binder with its values, some of them ahead of it.

What was measured:
[1] = target: T1, common gamma chain (γc), endogenous in CD8+ T cells (mouse (endogenous in CD8+ T cells)) (UniProt P34902); assay: co-IP
T1 sequence: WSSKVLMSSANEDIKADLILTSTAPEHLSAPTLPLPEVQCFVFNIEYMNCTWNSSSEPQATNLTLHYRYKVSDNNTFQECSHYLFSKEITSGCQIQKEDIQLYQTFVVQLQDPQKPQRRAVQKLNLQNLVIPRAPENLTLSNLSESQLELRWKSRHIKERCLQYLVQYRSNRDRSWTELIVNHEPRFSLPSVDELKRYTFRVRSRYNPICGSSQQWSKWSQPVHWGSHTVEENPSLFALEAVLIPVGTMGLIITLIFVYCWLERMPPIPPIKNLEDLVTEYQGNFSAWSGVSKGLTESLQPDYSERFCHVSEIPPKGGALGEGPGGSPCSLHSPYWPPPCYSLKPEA

Tmem127-eGFP (HEK293T) = target: T2, Tmem127-eGFP (HEK293T) (UniProt Q8BGP5); assay: co-IP
T2 sequence: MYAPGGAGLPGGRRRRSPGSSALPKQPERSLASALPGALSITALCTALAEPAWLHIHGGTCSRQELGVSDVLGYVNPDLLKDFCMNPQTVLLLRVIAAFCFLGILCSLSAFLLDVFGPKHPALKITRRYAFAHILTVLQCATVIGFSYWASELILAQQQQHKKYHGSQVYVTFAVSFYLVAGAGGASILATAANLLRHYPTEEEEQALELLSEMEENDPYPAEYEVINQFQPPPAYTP

- binding [1]: binds
B1: Tmem127-eGFP (CD8+ T cells) (protein, UniProt Q8BGP5 1-238)
chain: T2 sequence

- binding (Tmem127-eGFP (HEK293T)): binds
B2: common gamma chain (γc), overexpressed in HEK293T (receptor, UniProt P34902 23-369)
chain: T1 sequence
